Data from the supplement of paper PMC11732987, “Enantioselective OTUD7B fragment discovery through chemoproteomics screening and high-throughput optimisation” (Communications Chemistry, 2025).
The list shows a part of the results. The data scatter; read single values as rough.

Chains of the proteins cited; added tags and fusions are not shown. Lines headed by an entry give the natural chain unless they say otherwise; changes in a name come on top. Residues count along the entry.
UniProt Q6PIW4, 151-170: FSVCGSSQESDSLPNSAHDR
UniProt O95363: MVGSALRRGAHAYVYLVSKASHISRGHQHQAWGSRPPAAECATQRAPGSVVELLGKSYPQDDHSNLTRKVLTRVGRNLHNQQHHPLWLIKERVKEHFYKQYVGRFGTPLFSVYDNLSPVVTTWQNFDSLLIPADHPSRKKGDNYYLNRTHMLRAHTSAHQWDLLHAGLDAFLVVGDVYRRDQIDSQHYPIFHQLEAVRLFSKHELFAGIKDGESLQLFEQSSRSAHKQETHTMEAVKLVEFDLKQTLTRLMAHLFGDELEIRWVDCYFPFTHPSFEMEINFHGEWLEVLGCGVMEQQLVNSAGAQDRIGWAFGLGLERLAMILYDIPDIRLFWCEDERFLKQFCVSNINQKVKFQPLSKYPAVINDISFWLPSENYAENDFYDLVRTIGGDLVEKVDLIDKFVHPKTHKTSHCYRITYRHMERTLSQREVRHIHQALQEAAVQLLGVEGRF
UniProt Q8N3X1, 655-674: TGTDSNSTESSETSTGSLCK
UniProt Q9UQC2: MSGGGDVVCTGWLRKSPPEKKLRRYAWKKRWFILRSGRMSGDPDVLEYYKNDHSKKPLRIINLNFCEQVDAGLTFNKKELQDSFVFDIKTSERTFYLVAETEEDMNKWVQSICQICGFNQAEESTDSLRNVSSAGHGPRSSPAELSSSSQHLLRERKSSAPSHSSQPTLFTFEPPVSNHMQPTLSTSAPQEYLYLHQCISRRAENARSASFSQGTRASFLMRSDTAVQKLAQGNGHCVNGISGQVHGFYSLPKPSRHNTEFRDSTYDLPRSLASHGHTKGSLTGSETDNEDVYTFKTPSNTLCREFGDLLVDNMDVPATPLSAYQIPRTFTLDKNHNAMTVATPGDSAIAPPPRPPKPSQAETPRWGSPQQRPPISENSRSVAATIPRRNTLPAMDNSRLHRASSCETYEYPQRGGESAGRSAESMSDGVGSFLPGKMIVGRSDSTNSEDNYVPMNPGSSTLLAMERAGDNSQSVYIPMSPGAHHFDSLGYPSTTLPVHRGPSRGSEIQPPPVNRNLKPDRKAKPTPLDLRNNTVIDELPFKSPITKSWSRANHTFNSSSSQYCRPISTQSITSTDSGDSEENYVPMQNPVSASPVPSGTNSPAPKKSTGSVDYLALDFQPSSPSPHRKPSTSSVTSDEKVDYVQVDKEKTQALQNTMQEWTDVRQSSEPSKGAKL
UniProt Q96AY3: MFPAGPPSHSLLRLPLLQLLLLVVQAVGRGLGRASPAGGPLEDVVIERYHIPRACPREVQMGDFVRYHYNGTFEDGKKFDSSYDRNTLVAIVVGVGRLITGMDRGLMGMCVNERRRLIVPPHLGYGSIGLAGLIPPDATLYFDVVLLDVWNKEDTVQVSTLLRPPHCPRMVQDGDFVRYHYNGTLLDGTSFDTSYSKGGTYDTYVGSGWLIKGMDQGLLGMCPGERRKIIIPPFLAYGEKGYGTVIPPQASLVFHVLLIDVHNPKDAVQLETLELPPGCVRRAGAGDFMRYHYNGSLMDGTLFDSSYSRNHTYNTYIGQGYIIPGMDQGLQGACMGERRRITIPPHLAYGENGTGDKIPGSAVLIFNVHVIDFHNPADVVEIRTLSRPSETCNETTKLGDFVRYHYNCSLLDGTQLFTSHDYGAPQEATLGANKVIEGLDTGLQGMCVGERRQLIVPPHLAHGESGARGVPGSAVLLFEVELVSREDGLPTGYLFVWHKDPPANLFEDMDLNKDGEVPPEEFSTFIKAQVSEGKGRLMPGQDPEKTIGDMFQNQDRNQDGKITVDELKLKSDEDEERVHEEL
UniProt Q9NYY8: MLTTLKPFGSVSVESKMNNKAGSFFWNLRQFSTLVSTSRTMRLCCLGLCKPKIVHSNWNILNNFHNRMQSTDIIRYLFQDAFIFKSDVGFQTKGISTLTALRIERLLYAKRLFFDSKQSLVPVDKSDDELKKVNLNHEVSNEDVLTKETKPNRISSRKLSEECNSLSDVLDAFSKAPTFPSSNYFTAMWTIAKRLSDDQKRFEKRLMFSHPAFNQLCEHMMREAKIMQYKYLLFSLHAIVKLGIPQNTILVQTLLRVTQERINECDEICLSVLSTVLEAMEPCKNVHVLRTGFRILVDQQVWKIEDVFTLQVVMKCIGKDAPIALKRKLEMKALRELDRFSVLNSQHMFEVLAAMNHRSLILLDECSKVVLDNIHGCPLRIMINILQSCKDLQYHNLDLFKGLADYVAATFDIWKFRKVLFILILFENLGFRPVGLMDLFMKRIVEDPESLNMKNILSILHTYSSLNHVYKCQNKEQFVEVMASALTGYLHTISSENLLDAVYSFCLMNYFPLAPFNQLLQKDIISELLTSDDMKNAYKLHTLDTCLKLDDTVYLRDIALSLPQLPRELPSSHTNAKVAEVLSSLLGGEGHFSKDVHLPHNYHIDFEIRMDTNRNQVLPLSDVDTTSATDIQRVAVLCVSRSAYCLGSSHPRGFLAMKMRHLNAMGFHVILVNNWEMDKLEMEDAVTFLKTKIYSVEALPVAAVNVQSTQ
UniProt Q14C86: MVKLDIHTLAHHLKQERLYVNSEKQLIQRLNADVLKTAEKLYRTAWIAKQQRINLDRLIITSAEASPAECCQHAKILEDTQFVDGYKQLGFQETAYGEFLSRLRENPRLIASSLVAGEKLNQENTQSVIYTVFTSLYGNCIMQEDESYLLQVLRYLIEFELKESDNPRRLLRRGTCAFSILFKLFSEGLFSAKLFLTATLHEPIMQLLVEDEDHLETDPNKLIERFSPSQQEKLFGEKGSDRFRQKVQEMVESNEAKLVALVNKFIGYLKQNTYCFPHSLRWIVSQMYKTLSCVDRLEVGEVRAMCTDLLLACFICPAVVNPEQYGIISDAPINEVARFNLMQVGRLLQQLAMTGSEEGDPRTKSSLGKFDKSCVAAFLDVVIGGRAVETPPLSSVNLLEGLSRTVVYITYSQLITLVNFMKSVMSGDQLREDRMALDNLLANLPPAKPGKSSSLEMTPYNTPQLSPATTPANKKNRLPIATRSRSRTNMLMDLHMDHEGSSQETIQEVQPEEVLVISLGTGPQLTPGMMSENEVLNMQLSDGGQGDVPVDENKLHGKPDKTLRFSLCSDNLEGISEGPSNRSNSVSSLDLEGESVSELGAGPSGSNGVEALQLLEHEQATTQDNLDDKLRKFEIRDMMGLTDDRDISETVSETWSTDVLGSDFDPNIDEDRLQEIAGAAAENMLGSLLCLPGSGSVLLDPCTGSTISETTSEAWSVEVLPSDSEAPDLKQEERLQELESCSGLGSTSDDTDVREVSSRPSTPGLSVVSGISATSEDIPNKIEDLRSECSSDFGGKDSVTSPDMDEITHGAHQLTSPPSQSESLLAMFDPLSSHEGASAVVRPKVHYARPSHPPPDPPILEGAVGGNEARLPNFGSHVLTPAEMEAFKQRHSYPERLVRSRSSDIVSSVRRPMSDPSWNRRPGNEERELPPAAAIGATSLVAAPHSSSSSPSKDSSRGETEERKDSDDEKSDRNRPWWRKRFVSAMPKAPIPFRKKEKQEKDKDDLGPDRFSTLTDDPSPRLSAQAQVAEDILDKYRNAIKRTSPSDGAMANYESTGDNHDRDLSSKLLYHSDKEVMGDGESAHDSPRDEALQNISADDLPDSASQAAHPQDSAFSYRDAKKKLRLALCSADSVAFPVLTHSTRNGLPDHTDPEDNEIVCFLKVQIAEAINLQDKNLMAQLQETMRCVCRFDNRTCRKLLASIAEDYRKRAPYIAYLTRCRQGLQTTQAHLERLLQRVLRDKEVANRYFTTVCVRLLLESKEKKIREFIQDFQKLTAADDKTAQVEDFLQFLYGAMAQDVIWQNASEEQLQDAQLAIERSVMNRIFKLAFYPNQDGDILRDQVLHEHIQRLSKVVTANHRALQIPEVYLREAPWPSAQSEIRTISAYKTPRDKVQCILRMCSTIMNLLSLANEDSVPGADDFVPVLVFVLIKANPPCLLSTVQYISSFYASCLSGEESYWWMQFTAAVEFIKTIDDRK
UniProt O75369, whole entry, looked up: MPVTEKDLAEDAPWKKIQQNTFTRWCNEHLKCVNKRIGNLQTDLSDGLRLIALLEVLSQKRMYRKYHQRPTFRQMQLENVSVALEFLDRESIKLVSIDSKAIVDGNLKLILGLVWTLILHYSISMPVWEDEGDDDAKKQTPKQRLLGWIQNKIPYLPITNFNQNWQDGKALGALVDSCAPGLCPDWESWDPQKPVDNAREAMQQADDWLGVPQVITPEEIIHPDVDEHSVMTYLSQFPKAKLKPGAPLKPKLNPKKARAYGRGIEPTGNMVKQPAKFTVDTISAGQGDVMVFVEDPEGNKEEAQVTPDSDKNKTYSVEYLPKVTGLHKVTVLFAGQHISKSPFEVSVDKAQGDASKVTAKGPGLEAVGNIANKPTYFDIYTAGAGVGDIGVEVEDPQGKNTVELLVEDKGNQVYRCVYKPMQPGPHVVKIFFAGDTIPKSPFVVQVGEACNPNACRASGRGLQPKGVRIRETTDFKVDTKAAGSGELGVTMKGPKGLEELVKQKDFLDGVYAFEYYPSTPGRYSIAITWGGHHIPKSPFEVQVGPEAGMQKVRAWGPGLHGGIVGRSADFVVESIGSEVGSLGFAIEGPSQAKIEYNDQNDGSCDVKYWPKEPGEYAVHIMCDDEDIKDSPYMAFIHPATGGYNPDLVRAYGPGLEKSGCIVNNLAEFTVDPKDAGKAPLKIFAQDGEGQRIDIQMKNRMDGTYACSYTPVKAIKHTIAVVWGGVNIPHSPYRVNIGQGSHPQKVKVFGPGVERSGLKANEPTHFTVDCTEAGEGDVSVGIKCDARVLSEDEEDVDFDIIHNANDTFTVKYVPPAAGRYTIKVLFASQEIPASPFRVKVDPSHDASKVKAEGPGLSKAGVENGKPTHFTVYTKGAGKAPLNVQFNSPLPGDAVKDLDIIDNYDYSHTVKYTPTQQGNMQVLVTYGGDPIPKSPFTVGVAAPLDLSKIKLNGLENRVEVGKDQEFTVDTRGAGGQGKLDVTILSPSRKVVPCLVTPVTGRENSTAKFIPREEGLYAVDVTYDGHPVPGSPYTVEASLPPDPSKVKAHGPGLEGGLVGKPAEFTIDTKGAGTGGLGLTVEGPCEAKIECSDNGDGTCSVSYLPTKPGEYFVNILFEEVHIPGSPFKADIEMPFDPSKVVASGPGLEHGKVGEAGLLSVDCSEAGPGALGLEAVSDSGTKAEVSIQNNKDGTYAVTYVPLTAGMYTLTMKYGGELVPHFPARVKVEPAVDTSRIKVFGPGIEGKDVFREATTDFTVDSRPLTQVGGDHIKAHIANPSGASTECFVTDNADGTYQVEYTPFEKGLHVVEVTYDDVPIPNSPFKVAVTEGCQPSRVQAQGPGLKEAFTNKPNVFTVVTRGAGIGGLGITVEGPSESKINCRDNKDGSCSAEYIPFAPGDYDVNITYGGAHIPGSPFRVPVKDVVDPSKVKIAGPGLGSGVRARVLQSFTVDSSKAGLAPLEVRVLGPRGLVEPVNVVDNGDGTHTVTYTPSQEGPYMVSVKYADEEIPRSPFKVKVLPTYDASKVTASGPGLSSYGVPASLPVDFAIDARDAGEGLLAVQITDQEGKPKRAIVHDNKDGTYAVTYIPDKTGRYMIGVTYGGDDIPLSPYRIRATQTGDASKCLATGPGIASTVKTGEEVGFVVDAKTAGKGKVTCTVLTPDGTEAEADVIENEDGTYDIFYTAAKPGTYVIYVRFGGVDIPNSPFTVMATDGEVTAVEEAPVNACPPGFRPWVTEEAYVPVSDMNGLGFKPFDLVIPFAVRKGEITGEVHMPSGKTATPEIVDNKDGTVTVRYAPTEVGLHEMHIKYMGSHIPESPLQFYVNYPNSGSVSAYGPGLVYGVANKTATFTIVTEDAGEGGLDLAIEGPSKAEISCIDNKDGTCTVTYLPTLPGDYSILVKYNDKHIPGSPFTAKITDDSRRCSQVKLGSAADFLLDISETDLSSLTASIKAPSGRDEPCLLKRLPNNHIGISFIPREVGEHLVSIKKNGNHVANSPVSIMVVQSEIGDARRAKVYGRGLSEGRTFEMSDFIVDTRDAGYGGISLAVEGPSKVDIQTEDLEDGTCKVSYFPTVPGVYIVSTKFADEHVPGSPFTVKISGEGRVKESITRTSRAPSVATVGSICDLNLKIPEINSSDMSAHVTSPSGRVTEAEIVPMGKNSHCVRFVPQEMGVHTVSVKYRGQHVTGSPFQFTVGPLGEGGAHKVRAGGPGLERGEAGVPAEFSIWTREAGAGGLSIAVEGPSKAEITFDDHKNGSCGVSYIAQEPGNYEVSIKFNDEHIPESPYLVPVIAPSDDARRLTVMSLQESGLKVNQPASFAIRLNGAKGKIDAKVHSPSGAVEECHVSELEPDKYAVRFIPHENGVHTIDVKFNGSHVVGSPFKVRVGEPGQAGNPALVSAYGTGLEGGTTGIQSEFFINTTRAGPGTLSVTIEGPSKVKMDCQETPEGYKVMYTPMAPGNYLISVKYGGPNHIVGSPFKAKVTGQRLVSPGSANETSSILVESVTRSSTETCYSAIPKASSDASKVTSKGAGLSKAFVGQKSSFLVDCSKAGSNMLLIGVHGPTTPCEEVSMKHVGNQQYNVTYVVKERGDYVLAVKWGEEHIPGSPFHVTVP

What follows are targets tested with ClCC(=O)N[C@H]1CCCc2ccccc12 (assay: log2 mean competition ratio of IA-DTB cysteine labelling (DMSO/compound) (log2 ratio); higher = stronger cysteine engagement by compound). Details: 50 µM; treatment time: 4 h; cell line lysate: HEK293T.
Method: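 IA-DTB competitive cysteine chemoproteomics in HEK293T RIPA lysate. Lysates were treated with compound 29 or 30 at 50 or 200 µM for 4 h, then IA-DTB (500 µM, 1 h), trypsin-digested, NeutrAvidin-enriched and analysed by diaPASEF. Competition ratio = intensity DMSO / intensity compound (n=4 treated, n=64 DMSO); binding: mean log2 CR ≥ 1 and p ≤ 0.05 plus QC filters. Target is the cysteine site.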

Row | Target | log2 mean competition ratio
1 | FASN C1759 | -0.0376
2 | FDXR C152 (UniProt P22570) | -0.14
3 | FBXL2 C88 | -0.121
4 | FIGNL1 C154 (UniProt Q6PIW4) | 0.332
5 | FBN2 C149 (UniProt P35556) | 0.315
6 | FARS2 C344 (UniProt O95363) | -0.0109
7 | FER C796 (UniProt P16591) | -0.154
8 | FNBP4 C673 (UniProt Q8N3X1) | -0.345
9 | FXR1 C141 (UniProt P51114) | -0.279
10 | GAB2 C9 (UniProt Q9UQC2) | -0.147
11 | FHL3 C10 (UniProt Q13643) | 0.125
12 | FASN C1828 | -0.0397
13 | FKBP10 C222 (UniProt Q96AY3) | -0.0219
14 | FASTKD2 C377 (UniProt Q9NYY8) | 0.836
15 | GAPVD1 C1396 (UniProt Q14C86) | 0.66
16 | GART C506 | 0.127
17 | FLNB C2537 (UniProt O75369) | -0.0855
18 | FBXL18 C324 (UniProt Q96ME1) | -0.434
19 | FKBP8 C227 (UniProt Q14318) | 0.149

Same assay, conditions: 200 µM; treatment time: 4 h; cell line lysate: HEK293T

Row | Target | log2 mean competition ratio
20 | FASN C1759 | -0.576
21 | FDXR C152 (UniProt P22570) | 0.049
22 | FBXL2 C88 | 0.306
23 | FIGNL1 C154 (UniProt Q6PIW4) | 0.0414
24 | FHIP2B C186 | -0.122
25 | FBN2 C149 (UniProt P35556) | 0.355
26 | FARS2 C344 (UniProt O95363) | -0.0775
27 | FER C796 (UniProt P16591) | -0.12
28 | FNBP4 C673 (UniProt Q8N3X1) | 0.186
29 | FXR1 C141 (UniProt P51114) | -0.226
30 | GAB2 C9 (UniProt Q9UQC2) | 0.564
31 | FHL3 C10 (UniProt Q13643) | 0.0198
32 | FASN C1828 | 0.189
33 | FKBP10 C222 (UniProt Q96AY3) | 0.248
34 | FASTKD2 C377 (UniProt Q9NYY8) | 1.59
35 | GAPVD1 C1396 (UniProt Q14C86) | 0.31
36 | FOXF1 C339 | 0.506
37 | GART C506 | -0.0763
38 | FLNB C2537 (UniProt O75369) | 0.271
39 | FBXL18 C324 (UniProt Q96ME1) | -0.00256
40 | FKBP8 C227 (UniProt Q14318) | 0.062
